# No constants are given. Whether binding was seen depends on the method and setting. Binding seen in cells or lysates may run through a third protein. These calls come from enrichment with a bait or labelling near it, and not all partners need be listed. Tags and fused reporters may be left off the sequences shown.
# Amino acid sequences for entries named in this document (tags omitted). A change or cut given only in a name is not applied to a line headed by its entry. Residues count along the entry.
# UniProt P17329: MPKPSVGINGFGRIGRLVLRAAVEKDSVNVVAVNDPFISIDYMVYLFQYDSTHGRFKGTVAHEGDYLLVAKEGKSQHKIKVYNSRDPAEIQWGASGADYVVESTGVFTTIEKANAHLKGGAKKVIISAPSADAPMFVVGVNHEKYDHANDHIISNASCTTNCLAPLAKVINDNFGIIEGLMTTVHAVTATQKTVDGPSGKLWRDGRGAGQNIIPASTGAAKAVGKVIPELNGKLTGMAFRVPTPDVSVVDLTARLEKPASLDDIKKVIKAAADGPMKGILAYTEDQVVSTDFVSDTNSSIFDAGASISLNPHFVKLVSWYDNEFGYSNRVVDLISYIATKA
# UniProt D5MCN2: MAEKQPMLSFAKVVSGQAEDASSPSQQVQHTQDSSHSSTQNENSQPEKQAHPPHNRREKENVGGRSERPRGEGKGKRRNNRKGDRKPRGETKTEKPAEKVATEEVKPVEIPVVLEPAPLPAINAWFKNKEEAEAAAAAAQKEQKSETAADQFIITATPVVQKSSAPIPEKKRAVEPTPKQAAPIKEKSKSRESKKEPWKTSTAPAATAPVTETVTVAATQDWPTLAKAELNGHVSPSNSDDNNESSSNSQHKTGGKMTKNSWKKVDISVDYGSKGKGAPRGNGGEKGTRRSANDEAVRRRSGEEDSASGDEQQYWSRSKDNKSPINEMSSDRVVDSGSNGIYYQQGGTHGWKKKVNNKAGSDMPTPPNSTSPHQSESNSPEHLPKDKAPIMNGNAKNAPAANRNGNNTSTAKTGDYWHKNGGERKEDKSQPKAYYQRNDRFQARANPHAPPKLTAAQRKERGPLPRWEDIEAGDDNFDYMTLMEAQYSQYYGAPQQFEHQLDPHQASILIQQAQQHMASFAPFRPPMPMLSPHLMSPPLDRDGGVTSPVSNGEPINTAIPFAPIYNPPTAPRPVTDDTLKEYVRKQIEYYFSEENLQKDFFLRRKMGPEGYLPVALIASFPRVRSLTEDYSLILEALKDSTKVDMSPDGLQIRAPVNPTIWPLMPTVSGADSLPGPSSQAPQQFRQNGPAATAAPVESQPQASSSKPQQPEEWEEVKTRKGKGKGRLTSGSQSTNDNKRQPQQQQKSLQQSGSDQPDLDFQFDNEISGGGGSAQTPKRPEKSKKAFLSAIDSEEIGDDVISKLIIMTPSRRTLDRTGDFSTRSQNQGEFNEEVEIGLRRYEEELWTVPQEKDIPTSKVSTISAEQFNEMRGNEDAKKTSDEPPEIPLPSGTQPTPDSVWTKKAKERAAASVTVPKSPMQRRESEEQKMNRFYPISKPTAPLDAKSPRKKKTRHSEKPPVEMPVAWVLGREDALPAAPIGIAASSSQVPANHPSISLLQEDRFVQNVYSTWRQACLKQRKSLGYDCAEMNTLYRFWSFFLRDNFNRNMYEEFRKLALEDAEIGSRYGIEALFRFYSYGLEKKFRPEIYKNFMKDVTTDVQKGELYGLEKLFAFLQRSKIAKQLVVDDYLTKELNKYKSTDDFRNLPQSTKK
# UniProt Q18494: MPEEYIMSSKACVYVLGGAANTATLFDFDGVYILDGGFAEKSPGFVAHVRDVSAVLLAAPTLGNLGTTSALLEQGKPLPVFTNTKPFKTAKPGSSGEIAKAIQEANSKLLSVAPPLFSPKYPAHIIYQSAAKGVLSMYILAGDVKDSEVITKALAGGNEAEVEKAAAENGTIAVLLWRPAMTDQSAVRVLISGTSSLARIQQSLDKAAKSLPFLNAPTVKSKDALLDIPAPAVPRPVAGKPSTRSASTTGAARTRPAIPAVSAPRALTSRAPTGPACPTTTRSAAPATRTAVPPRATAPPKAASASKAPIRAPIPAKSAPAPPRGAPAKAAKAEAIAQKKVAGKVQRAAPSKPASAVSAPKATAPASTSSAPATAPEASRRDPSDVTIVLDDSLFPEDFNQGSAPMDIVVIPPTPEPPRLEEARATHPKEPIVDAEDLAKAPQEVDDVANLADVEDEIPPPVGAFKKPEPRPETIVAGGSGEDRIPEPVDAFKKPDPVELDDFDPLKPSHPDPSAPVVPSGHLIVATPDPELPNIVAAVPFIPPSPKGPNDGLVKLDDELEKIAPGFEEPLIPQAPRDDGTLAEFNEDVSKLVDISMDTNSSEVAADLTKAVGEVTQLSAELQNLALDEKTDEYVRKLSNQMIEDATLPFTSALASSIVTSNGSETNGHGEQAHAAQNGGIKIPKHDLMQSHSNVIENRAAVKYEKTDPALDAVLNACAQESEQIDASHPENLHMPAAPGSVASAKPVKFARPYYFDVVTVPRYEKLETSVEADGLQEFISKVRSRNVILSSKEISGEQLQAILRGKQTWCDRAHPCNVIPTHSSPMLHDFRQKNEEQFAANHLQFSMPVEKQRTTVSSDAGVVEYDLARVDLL
# UniProt Q27371: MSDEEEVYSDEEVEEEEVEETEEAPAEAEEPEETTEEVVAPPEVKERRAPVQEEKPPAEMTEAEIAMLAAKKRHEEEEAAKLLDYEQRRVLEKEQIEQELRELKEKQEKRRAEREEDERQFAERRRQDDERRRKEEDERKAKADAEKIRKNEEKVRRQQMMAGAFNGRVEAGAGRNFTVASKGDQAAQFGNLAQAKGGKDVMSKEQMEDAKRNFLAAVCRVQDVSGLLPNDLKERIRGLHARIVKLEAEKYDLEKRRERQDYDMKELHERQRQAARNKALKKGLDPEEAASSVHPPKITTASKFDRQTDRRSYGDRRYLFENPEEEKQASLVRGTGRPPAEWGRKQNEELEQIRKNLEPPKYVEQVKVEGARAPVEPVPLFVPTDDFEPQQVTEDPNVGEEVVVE
# UniProt P18948, residues 16-1651: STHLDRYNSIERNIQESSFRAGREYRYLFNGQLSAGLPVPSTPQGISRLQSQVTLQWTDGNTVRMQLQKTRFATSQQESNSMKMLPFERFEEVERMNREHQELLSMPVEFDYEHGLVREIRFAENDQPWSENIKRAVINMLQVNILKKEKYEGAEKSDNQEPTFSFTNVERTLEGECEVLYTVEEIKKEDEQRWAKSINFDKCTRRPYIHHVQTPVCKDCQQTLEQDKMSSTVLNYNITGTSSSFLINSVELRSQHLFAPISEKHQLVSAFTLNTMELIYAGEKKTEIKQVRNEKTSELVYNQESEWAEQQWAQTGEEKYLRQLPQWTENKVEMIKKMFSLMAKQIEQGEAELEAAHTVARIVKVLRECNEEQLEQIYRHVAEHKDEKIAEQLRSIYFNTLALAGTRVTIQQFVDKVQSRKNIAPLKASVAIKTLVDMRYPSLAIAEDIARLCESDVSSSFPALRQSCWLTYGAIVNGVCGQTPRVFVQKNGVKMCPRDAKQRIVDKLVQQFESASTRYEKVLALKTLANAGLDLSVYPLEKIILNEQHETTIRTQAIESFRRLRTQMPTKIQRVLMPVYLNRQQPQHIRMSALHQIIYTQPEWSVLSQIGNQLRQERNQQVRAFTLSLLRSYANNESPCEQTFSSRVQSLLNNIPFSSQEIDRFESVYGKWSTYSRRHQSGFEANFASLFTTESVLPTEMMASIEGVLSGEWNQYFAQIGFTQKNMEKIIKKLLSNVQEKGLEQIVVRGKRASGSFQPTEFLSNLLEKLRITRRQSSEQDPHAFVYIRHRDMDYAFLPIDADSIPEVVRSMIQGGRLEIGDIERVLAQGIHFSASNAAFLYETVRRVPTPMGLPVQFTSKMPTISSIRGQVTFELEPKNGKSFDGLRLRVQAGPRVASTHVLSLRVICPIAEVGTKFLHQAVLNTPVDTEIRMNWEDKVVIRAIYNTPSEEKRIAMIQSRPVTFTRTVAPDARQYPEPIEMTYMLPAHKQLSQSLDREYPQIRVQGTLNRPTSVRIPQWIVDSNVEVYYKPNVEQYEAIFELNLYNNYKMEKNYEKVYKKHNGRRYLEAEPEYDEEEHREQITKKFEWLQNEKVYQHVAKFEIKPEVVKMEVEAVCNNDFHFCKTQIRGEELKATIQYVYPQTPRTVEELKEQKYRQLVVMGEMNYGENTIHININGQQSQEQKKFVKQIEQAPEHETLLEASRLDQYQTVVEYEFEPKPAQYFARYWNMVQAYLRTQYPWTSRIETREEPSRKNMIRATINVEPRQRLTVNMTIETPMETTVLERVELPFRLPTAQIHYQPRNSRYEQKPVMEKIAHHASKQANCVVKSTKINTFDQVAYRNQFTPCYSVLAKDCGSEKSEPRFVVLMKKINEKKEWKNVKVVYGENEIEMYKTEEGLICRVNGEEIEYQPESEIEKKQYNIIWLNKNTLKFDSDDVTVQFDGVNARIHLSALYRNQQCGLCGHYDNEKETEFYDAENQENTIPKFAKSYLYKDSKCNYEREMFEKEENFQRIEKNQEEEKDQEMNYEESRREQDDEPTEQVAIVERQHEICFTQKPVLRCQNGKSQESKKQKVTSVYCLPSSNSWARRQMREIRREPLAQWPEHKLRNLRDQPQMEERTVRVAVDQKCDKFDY
# T1: DLG-1::GTA (DLG-1::GFP-2xTEV-Avi) (C. elegans) (UniProt G5ECY0)
# T1 sequence (chain, biotin on the Avi tag (in vivo, by BirA)): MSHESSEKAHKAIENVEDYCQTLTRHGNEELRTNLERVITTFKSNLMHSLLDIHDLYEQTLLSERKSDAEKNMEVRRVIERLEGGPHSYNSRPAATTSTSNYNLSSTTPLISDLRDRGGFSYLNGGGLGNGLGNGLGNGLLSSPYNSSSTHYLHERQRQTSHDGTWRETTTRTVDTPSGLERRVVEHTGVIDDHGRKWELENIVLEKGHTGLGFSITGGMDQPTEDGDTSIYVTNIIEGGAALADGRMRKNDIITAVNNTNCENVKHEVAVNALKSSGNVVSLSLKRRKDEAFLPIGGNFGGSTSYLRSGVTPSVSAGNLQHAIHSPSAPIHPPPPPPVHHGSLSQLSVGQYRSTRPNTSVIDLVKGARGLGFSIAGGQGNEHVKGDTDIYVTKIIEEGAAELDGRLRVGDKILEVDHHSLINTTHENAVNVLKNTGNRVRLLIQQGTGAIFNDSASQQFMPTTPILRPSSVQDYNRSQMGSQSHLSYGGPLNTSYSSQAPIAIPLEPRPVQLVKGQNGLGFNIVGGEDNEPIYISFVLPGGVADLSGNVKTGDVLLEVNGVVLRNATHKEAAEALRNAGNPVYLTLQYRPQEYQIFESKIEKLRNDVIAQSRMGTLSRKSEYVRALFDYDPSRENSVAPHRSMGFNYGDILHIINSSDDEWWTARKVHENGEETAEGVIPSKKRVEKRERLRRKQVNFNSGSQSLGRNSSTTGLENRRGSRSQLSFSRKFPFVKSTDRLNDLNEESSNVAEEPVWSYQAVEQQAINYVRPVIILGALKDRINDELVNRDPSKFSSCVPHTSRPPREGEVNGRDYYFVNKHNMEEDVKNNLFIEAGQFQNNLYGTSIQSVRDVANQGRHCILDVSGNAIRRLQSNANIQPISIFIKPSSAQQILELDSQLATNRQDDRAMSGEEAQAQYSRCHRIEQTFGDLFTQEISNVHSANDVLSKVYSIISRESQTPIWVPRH
# Target: T1, DLG-1::GTA (DLG-1::GFP-2xTEV-Avi) (C. elegans)
# Test: affinity purification with mass spectrometry; GTA-tagged bait biotinylated in vivo (BirA ubiquitous, intestine, seam/hyp7 or neurons) captured on streptavidin-coated beads from whole-animal lysate (L3/L4; 150 mM NaCl, 20 mM Tris pH 7.8, 5 mM EDTA, 1 % Triton X-100), 1.5 h at 4 °C, released by TEV protease, LC-MS/MS, SAINT scoring against GFP::TEV::Avi controls, triplicates
row,Molecule,binding
1,ATN-1 (C. elegans (endogenous in whole animals)),binds
2,EPS-8 (C. elegans (endogenous in whole animals)),binds
3,GPD-2 (from UniProt P17329 1-341),binds
4,LARP-1 (from UniProt D5MCN2 1-1150),binds
5,LEC-2 (C. elegans (endogenous in whole animals)),binds
6,LEC-4 (C. elegans (endogenous in whole animals)),binds
7,MAPH-1.3 (from UniProt Q18494),binds
8,MUP-2 (from UniProt Q27371 1-405),binds
9,VIT-6 (from UniProt P18948 16-1651),binds
10,"IFB-2 (protein, UniProt Q19286 1-543) MSAVSYSMHRTTTTTSSSSHGGVSAGHAAEEFVASAEREKQEMQQLNSRLEVYISRVRQLEDRNKELVIELDTLRGSLGNDIGQIKFKFNDSLVKVRREISEAHSGTIGVEVKVDRLRDDLNDYRHRYEEARREVEREKTTWGGAISQAQAELDTNKSRYAAILDEEKRLYAEQDQLYLQLAAAKDELDAAIVDRRRLQAEEDDLKIELEFLGRIHSQEITELRTLLAQAPADTREFFKNELALAIREIKAEYDKIIQTTRVDLETIFQSKISAVESSIVSKNEAAVFRQEEIRKMNESITTLRAKLSELEARNSALEREANTLQIQLGEDQRAYESELHKRDNALRFMREDCQTLIAELQALLNTKQTLDTEIAIYRKLVESEEGRFTHVGQGVVVAQQETTRLVPVEQDHWDSGEVQTRSSFKRHAKGNVSIVECDPQGKYIILENTSGSVAEDVSNFEIRRVIDGVQAFVFRLPSHLVIQQHGHLKIYGRNSGGINSPPDSIVMESHPSWGQGGQVETFLYNSHGIEKASHIQTTVASSR",binds
11,"IFC-2 (protein, UniProt Q21067 1-622) MSTYAAYTTSTYQGRGLASGTYASGFGQLVSGMSSAGAICTTQIRDAREREKREIGLLNDRLADYIEKVRFLEAQNRCLSHDIDILRNGFSGGGHVSGLFDAEINQAKHILEQTTAHRSTFERDITGLSAEIEVFRKKWLDAVNAVKAHREDHDVDLDRLAKIEAEISLFKRKIRIVEEDVIRIRRENDGIYNEIARIKQLTHNEIALKNERSLNVSDLLQRINLLQTENNVRIEQELVFIRRDTTADNRDYFRHELQAAIRDIRADYEAISIRNRQDIEVWYREQIRKIQDESVRVNPDLYKEELISIRTTVTNVRSRLAEVEGRNFFLERLIDDLKNNEEAKFFEISLAERDAQIATLRDQCTELSIQMEKLCDNEISLRAEIERYRILLNGANVTTYTSNTHGSGSGIAVGGVVGGSTRVISQTTRTHSSSNTSYSNVPASRGGYSISGNVGGISVGGTIGSHGASAHATGGIIGSGVQAHRGSVSSLITDKPRDRVHDEKGVDQSGRHFHSWYLGTISINQVTPSYIELKNICKIRRVDVGGFRIEQSVNGQVLGSAQINVPLILDPQEVVRFNHRHGKYLGQFFMDVDAFDNSTVARTSMYNYTEPHEERAWFVYLD",binds
12,"UNC-87 (protein, UniProt P37806 1-565) MLSFNNTTSASSFQSASSRYLMSSSSSIGPPQQQSAKLFPEHFYPSGLSPRQSEALERLRPNTASRERNIPIQFTGKNPTTNSALEEYKPVPHVQVTSPKSSIVPNFVSEQRGLQPQPTSQAPTNYRQFVAAPRSPRGYGDYPEMTGKASAAGDSEPVQIPIKTQTPITQARAQETKIPTIVSPHPVYYYDNQEQPIQQIREEQPNATMETKVTGQGQPKRVGRWTLAQLRQTDGIIPSQAGWNKGDSQKLMTNFGTPRNTNTRVKSENLQEIPEDIANRTHGEVRLQSGTNKYCSQRGMTGFGSGRDVCREGVRVAQNPADLAELPEEKIRMSEGIVRLQAGTNKYDSQKGMTGFGTGRRETTKMVDSKHPEYDHEKPDQSEIPLQSGTNKFASQKGMTGFGTARRETTKMVDSNHPDYSHECSIDQTTIPSQMGSNQYASQKGMTGFGQPRWEVLDPSISWQNRKSQGMVRLQSGTNRFASQAGMIGFGTCRNTTFEAEGGELPYEAMKVSETIIPSQAGWNKGDSQKKMTSFGAPRDVKGKHLKRIWELEYPEEAEISLDRL",binds
13,"VARS-2 (protein, UniProt Q9U1Q4 1-1050) MSDPAGNRPKTEKELKKEAEKAAKLAKFEEKQKKLAEKKAAASDKPVKEAKAKKEQTVEAAEPVDQTPTGQRKKIDGEIPAAYFPGYVESGWYSWWEKEGFFKPEYIDKLNPGSNPADSFTVCIPPPNVTGNLHVGHALATTVEDTITRFNRMHGKRTLFNPGCDHAGIATQVVVEKRLKRERGLTRHDLGRDRFNQEVWHWKNEKGDVIYDQFRKLGASVDWDRAVFTMDPKMCRAVTEAFIRMHESGTIYRSNRLVNWSCALRSAISDIEVDKKELTGSTLIAVPGYDKKIEFGVLNSFAYKIQGSDEEIVVSTTRIETMLGDSGVAVHPDDQRYKHLVGKQCIHPFIPTRNLPIFADSFVEMEFGTGAVKITPAHDHNDYEVGIRQNLPFHNCITDDGLISQGCGEFSGMKRFDARTAVIEALKEKGLYRGKEDNPMVVPTCSRSKDVIEPILKPQWYVKCAHMAEKAVAAVANGDLQIIPEFHKATWNRWLESSRDWCISRQLWWGHRIPAYYISFADGREQPLPEENYWVSARTEQEALAKAAQKFQVPEAEILLKWDEDVLDTWFSSGMWPFAVFGWPDATKDMDLFFPGAVLETGHDILFFWVARMVFMAQELTGKLPFKEILLHAMIRDAHGRKMSKSLGNVIDPLDVIRGISLNDLQAQLLGGNLDEKEIAVAKEGQARDYPDGIPECGVDALRFALLSYTSQGRDINLDVLRVHGYRKFCNKLWQVVRFALARISDKPEQKPTFEINLKSATPTDLWILSRLAKAVKETNEALKAYNFTQATTVTYNFWLYDFCDVYVETIKPVLYGDNTTLRQVAISVLHKCIDTGLRLISPLMPFISEELWQRMPRLDDSDYTSPSIIVAQYPLTQKYEKYQNEKLEAAFEFAQELIGKVRSLRADYDLKKTKITMQILSETPEDESMLNDISAVITTLTFSEKVSILNKCESDKIEKGSAHIACGGRCQVYINLTGIIDVPKEIEKLGAKLQKNQISVKKIGDIQSSADYEQKVPVDIRALDQEKKATLEKEIENITAAIAQLKALN",binds
14,"NMT-1 (protein, UniProt P46548 1-450) MSHGHSHDGAPCGGHHGDDGAGGSRPSVNDVQALVDQLRLAGVDVSNMPNIPTAPRDMDEARSKSFQFWSTQPVPQMDETVPADVNCAIEENIALDKVRAEPFSLPAGFRWSNVDLSDEEQLNELYNLLTRNYVEDDDSMFRFDYSADFLKWALQVPGFRPEWHCGVRADSNNRLLAFIGAVPQTVRVYDKTVNMVEINFLCVHKNLRSRRVAPVLIREITRRVNVTGIFQAAFTAGIVIPKPVSVCRYYHRSLNPRKLIDVRFSHLSAKMTMARTIKLYKLPEETATRNLREMKSTDVPQVFKLLTTSLKQYSLAPVYNSEEELAHALVPKKGVVYSYVAENQNGKITDFVSFYSLPSTVMGHTTHKTIYAAYLYYYVAGSVTPKQLINDSLILANREKFDVFNALDLMHNEKIFSDLKFGKGDGNLQYYLYNWKCADMKPSQIGLVLQ",binds
15,"MRG-1 (protein, UniProt A7DTF0 1-337) MSSKKNFEVGENVACIYKGKPYDAKITDIKTNSDGKELYCVHFKGWNNRYDEKIPVGEEKDRIFKGTASEYAEKHNAELPTTALKPKKKSLAAEAPRDDRDDTPGTSKGKKAKSVTIAPVMTADDMKVELPKPLRKILIDDYDLVCRYFINIVPHEYSVDQIIEDYIKTIPVSNEQMRTVDDLLIEYEEADIKITNLALICTARGLVDYFNVTLGSSYQLLYKFERPQYNDLVKKRAMEKGIDITNPTALQDSGFRPSQEYGIVHFLRMLAKLPDYLKLTQWNDHVINRIMIGVHDLIVFLNKNHGKYYRGSSDYQGASNDYYRRSLAADDGVGANQ",binds
